According to patent US8987216B2, “Polysulfated glycosides and salts thereof” (Teva Hungary Pharmaceutical Marketing Private Limited …, priority 2004, dated 2015):
Counter-ions that a name gives are not always drawn. At least one structure is not confirmed: it was looked up by name or label, or the drawing left a doubt.

Test system: BN-rats
Assay: Effect of locally (intratracheally) administered polysulfated glycosides on airways' hyperresponsiveness ex vivo (tracheal contraction to acetylcholine after antigen challenge)
Assay type: in vivo, Brown Norway (BN) rats
Conditions: dose of 0.01 mg/kg, 48 h after antigen challenge
Protocol: Brown Norway (BN) rats were actively sensitized to ovalbumin (OA) by a subcutaneous injection of 0.5 ml of OA/A1(OH)3 gel mixture (2 mg OA+10 g A1(OH)3/100 ml saline) on day 1 with subsequent subcutaneous injections (10 mg OA+10 g A1(OH)3/100 ml saline) given on days 14 and 21. On day 28, animals received the compound described in example 4 intratracheally (0.01; 0.1 or 1.0 mg/kg dose) 2 hours before antigen challenge. Antigen challenge was performed by inhalation of nebulised ovalbumin (1% antigen solution administered in a TSE inhalation system for 1 hour). Animals were sacrificed 48 hours post antigen challenge wherein the tracheas were removed to an organ bath. Dissected tracheas were allowed to equilibrate for 30 minutes before measuring tracheal spasmogenic response curves to acetylcholine (Ach).
As shown in Table 1 ovalbumin challenge of sensitized animals in this model caused a significant tracheal hyper-reactivity to acetylcholine, when the response to the spasmogenic agent was determined 48 h after antigen challenge.

O=S(=O)(O)OC[C@H](OS(=O)(=O)O)[C@@H](O[C@@H]1O[C@H](COS(=O)(=O)O)[C@@H](OS(=O)(=O)O)[C@H](OS(=O)(=O)O)[C@H]1OS(=O)(=O)O)[C@H](OS(=O)(=O)O)[C@@H](COS(=O)(=O)O)OS(=O)(=O)O [Example 4, 1,2,4,5,6-penta-O-sulfato-3-O-(2,3,4,6-tetra-β-sulfato-β-D-glucopyranosyl)-D-glucitol nona potassium salt]
tracheal hyper-reactivity to acetylcholine after ovalbumin challenge (in words): brought this elevation back almost to control level
